Test results reported in the supplement of paper PMC8728848.
Some of the results follow.

Experiments:
Experiment in all cases: glycan array binding signal (z-score within array); higher = stronger binding
Conditions in all cases: glycan notation: IUPAC condensed, linker removed
[1] = target: Gal(b1-4)Glc
In short: (§1)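 Glycan array data came from 3228 arrays in the Consortium for Functional Glycomics database, and only arrays with an available protein sequence were kept. Glycan names were put into IUPAC-condensed notation, and columns mapping to the same glycan were averaged. The binding signal is a within-array Z-score, averaged across arrays of one protein sequence run at different concentrations or buffers and across linkers. A negative Z-score can be read as non-binding.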

[2] = target: Gal(b1-4)Glc6S
In short: as §1

[3] = target: Gal(b1-4)GlcNAc
In short: as §1

[4] = target: Gal(b1-4)GlcNAc(a1-6)Gal(b1-4)GlcNAc
In short: as §1

[5] = target: Gal(b1-4)GlcNAc(b1-2)Man
In short: as §1

[6] = target: Gal(b1-4)GlcNAc(b1-2)Man(a1-3)Man(b1-4)GlcNAc(b1-4)GlcNAc
In short: as §1

[7] = target: Gal(b1-4)GlcNAc(b1-2)Man(a1-3)[Gal(b1-4)GlcNAc(b1-2)Man(a1-6)]Man(b1-4)GlcNAc(b1-4)GlcNAc
In short: as §1

[8] = target: Gal(b1-4)GlcNAc(b1-2)Man(a1-3)[Gal(b1-4)GlcNAc(b1-2)Man(a1-6)]Man(b1-4)GlcNAc(b1-4)[Fuc(a1-6)]GlcNAc
In short: as §1

[9] = target: Gal(b1-4)GlcNAc(b1-2)Man(a1-3)[Gal(b1-4)GlcNAc(b1-2)Man(a1-6)][Gal(b1-4)GlcNAc(b1-4)]Man(b1-4)GlcNAc(b1-4)[Fuc(a1-6)]GlcNAc
In short: as §1

[10] = target: Gal(b1-4)GlcNAc(b1-2)Man(a1-3)[Gal(b1-4)GlcNAc(b1-2)Man(a1-6)][GlcNAc(b1-4)]Man(b1-4)GlcNAc(b1-4)[Fuc(a1-6)]GlcNAc
In short: as §1

[11] = target: Gal(b1-4)GlcNAc(b1-2)Man(a1-3)[GlcNAc(b1-2)Man(a1-6)]Man(b1-4)GlcNAc(b1-4)GlcNAc
In short: as §1

[12] = target: Gal(b1-4)GlcNAc(b1-2)Man(a1-3)[GlcNAc(b1-4)][Gal(b1-4)GlcNAc(b1-2)Man(a1-6)]Man(b1-4)GlcNAc(b1-4)GlcNAc
In short: as §1

[13] = target: Gal(b1-4)GlcNAc(b1-2)Man(a1-3)[Man(a1-6)]Man(b1-4)GlcNAc(b1-4)GlcNAc
In short: as §1

[14] = target: Gal(b1-4)GlcNAc(b1-2)Man(a1-6)Man(b1-4)GlcNAc(b1-4)GlcNAc
In short: as §1

[15] = target: Gal(b1-4)GlcNAc(b1-2)Man(a1-6)[GlcNAc(b1-2)Man(a1-3)]Man(b1-4)GlcNAc(b1-4)GlcNAc
In short: as §1

[16] = target: Gal(b1-4)GlcNAc(b1-2)Man(a1-6)[Man(a1-3)]Man(b1-4)GlcNAc(b1-4)GlcNAc
In short: as §1

[17] = target: Gal(b1-4)GlcNAc(b1-2)[Gal(b1-4)GlcNAc(b1-4)]Man(a1-3)[Gal(b1-4)GlcNAc(b1-2)Man(a1-6)]Man(b1-4)GlcNAc(b1-4)GlcNAc
In short: as §1

[18] = target: Gal(b1-4)GlcNAc(b1-2)[Gal(b1-4)GlcNAc(b1-4)]Man(a1-3)[Gal(b1-4)GlcNAc(b1-2)[Gal(b1-4)GlcNAc(b1-6)]Man(a1-6)]Man(b1-4)GlcNAc(b1-4)GlcNAc
In short: as §1

[19] = target: Gal(b1-4)GlcNAc(b1-2)[Gal(b1-4)GlcNAc(b1-4)]Man(a1-3)[GlcNAc(b1-4)][Gal(b1-4)GlcNAc(b1-2)Man(a1-6)]Man(b1-4)GlcNAc(b1-4)GlcNAc
In short: as §1

[20] = target: Gal(b1-4)GlcNAc(b1-2)[Gal(b1-4)GlcNAc(b1-4)]Man(a1-3)[GlcNAc(b1-4)][Gal(b1-4)GlcNAc(b1-2)[Gal(b1-4)GlcNAc(b1-6)]Man(a1-6)]Man(b1-4)GlcNAc(b1-4)GlcNAc
In short: as §1

[21] = target: Gal(b1-4)GlcNAc(b1-2)[Gal(b1-4)GlcNAc(b1-6)]Man(a1-6)[Gal(b1-4)GlcNAc(b1-2)Man(a1-3)]Man(b1-4)GlcNAc(b1-4)GlcNAc
In short: as §1

[22] = target: Gal(b1-4)GlcNAc(b1-2)[Gal(b1-4)GlcNAc(b1-6)]Man(a1-6)[Gal(b1-4)GlcNAc(b1-2)Man(a1-3)]Man(b1-4)GlcNAc(b1-4)[Fuc(a1-6)]GlcNAc
In short: as §1

B1: Vd7LysM (Verticillium dahliae) (protein)
chain: RRGPEPKYPPAAGTSSYCSYWVDYEGDKSCSRVLEDNVVVLKDFARWNPTVGADCSGIKAGNSYCVEAFGEPEPIEVTTTTRAATTTTQPTATTTTFANGIATPQPTQSGMVTNCNKFHWIAEGVSCSQVISFQKITLADFVKWNPSVKSDCSGMWAGVNVCVGVVGSSTDTAKPTTTAPSNGVVTPQPTQPSMVTNCNKFHWIAKGVTCQQVISYQKISLADFVKWNPSVLSDCSGMWAEVQVCVGVIGSTPTTLATTTTTAGNGVSTPLPTQPGMVTNCAKFHWVAKGVTCNQIYSFQKITLEQFVSYNPTVKSDCSGMQAEVQVCVGLIAGTTPTTTRPPTTTAPGNGVSTPQPTQPGMVTNCAKFHWVAKGVTCNQIYSFQKITLEQFVSFNPTVKSDCTGMQAEVNVCVGLIGGNPTPTQTGNGIATPTPIQPGMVSNCKKFHWIAQGVTCQQVISFQKITLADFVKWNTGVGSDCRTMWAETNVCVGV
[1]
  glycan array binding signal (z-score): 0.306
[2]
  glycan array binding signal (z-score): 0.592
[3]
  glycan array binding signal (z-score): -0.007
[4]
  glycan array binding signal (z-score): -0.326
[5]
  glycan array binding signal (z-score): -1.78
[6]
  glycan array binding signal (z-score): -0.846
[7]
  glycan array binding signal (z-score): -0.58
[8]
  glycan array binding signal (z-score): 0.126
[9]
  glycan array binding signal (z-score): -0.393
[10]
  glycan array binding signal (z-score): -0.224
[11]
  glycan array binding signal (z-score): -0.17
[12]
  glycan array binding signal (z-score): -0.397
[13]
  glycan array binding signal (z-score): -0.246
[14]
  glycan array binding signal (z-score): -0.12
[15]
  glycan array binding signal (z-score): 0.014
[16]
  glycan array binding signal (z-score): 0.789
[17]
  glycan array binding signal (z-score): -0.751
[18]
  glycan array binding signal (z-score): -0.651
[19]
  glycan array binding signal (z-score): -1.36
[20]
  glycan array binding signal (z-score): -0.818
[21]
  glycan array binding signal (z-score): -0.692
[22]
  glycan array binding signal (z-score): -0.464
